# Source: article PMC5719053
# Amino acid sequences for entries named in this document (tags omitted). A change or cut given only in a name is not applied to a line headed by its entry.
# UniProt Q9Y6X2: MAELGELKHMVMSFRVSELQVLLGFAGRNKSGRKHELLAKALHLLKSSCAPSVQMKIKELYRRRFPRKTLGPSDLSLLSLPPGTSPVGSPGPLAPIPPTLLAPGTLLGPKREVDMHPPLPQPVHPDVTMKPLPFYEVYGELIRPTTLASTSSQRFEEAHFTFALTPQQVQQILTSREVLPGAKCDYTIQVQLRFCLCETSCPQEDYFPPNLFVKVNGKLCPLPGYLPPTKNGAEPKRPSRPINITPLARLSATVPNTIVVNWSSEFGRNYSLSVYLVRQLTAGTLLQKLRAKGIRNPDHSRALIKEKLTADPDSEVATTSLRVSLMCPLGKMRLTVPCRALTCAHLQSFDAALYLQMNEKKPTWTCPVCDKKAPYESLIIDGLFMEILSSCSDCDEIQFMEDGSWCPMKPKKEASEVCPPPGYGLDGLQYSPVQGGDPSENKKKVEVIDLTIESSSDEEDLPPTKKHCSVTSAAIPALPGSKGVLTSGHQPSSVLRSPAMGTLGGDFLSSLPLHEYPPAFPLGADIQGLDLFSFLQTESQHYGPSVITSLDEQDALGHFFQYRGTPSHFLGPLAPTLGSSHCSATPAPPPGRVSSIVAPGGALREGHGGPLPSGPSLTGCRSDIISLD
# UniProt Q04206: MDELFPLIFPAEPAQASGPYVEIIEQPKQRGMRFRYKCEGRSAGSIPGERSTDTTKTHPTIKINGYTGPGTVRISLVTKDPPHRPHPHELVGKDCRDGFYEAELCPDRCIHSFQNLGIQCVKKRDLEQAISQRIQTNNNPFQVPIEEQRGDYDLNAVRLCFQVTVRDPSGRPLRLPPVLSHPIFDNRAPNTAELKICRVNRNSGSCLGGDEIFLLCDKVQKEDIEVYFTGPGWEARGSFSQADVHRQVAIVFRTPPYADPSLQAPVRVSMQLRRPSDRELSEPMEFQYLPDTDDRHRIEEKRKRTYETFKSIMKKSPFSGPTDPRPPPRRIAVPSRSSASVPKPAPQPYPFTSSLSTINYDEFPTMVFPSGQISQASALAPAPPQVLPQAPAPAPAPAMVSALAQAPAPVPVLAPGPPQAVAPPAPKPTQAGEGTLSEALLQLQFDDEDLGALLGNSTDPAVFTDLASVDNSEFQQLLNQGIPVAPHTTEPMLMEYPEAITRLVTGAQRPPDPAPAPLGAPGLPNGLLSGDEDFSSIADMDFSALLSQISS
# No constants are given. Whether binding was seen depends on the method and setting. Binding seen in cells or lysates may run through a third protein. Binding can be weak; no strength is given.
# Biological target: human PIAS3-AA point mutant (LXXLL motif mutated) (human) (UniProt Q9Y6X2)
# Test: co-IP; HEK293T cells co-transfected with the tagged expression plasmids; whole-cell extracts in 50 mM Tris pH 7.4, 150 mM NaCl, 1% Nonidet P-40, 0.5% deoxycholate; primary antibody at 4 °C overnight, Protein G Sepharose 4-6 h; western blot with anti-tag mAbs (for bPIAS with bRel: precipitated with anti-Flag, blotted with anti-HA)
substance,measurement,value
"human NF-κB p65, full length, Flag-tagged (from UniProt Q04206 1-551)",binding,binds
